Some of the results follow.
Each compound was assayed on T1, CTL2-GFP (C. trachomatis L2/434/Bu, GFP-expressing). Details: bulk GFP, single well; 28.5 h, 10 µM; inhibitor.
T1 construct: L2/434/Bu, GFP-expressing
Parameters: species or system HeLa; Intracellular C. trachomatis growth in HeLa cells, bulk GFP fluorescence relative to DMSO

SMILES | % of control remaining [%]
Cc1nc2ccccc2n1CC(=O)NCCN1CCCC1 [CBK267336] | 109.597
C=C(C)Cn1c(SCC(C)C)nnc1-c1ccccc1OC(F)(F)F [CBK200080] | 98.1426
Cc1cc(C)n(CCNCc2cc(-c3ccc(F)cc3)c[nH]c2=O)n1 [CBK284694] | 154.406
C(=C\c1ccccc1)/Cn1c(COc2ccccc2)nc2ccccc21 [CBK265535] | 84.1182
CC1CC(=O)N(c2cccc(C(=O)Nc3cccc(-c4cccc(F)c4)c3)c2)C1=O (stereo not shown) [CBK285734] | 111.094
O=C(Cn1cnc(-c2nccs2)n1)N1CCCCCC1 [CBK306165] | 115.628
COc1ccc(CN2CCC[C@H]2c2nc(-c3ccc(OC)nc3)no2)c(O)c1 [CBK288898] | 124.76
CCCn1c(C)cc2cc(NC(=O)Cn3ccnc3)ccc21 [CBK281549] | 124.905
COc1c(C(=O)Nc2ccc(CN3CCOCC3)cc2)cc2ccccc2c1Br [CBK268593] | 120.204
Cc1cc(C)c(OCC(=O)Nc2ccc3oc(-c4cncc(Br)c4)nc3c2)c(Cl)c1 [CBK266634] | 122.209
CCN(Cc1ccco1)C(=O)Cn1c(=O)n(C)c2ncccc21 [CBK282390] | 111.748
CCOc1ccccc1CNc1ccc(C2c3ccsc3CCN2C(C)=O)cc1 (stereo not shown) [CBK286459] | 105.891
Nc1cccc(-c2cc(Nc3ccc(Cl)cc3)ncn2)c1 [CBK090886] | 97.5348
c1ccc(Nc2nc(-c3cccs3)cn3ccnc23)cc1 [CBK066513] | 93.2613
CC1CCCN(C(=S)NC2CC3CCC2C3)C1 (stereo not shown) [CBK085999] | 140.142
COc1ccc(NC(=O)Cc2csc(NC(=O)c3ccco3)n2)c(OC)c1 [CBK287649] | 101.192
CCCn1c(SCC(=O)NC2CCN(CC)CC2)nc2cc(Cl)ccc21 [CBK305027] | 82.5074
CCC(=O)N1CCC[C@@H]1Cn1nc(-c2cccs2)ccc1=O [CBK282304] | 127.732
Cc1oc(S(=O)(=O)N(C)C)cc1C(=O)O [CBK113681] | 95.9158
COCCNC(=O)C1CCCN(c2nc3c(-c4ccccc4)csc3c(=O)[nH]2)C1 (stereo not shown) [CBK215497] | 103.618
COC(=O)[C@@H](C)NC(=O)[C@@H]1CN(C(=O)c2cccc(F)c2)CCN1S(C)(=O)=O [CBK289625] | 135.117
CCCCC(CC)CN1CNC(=S)NC1 (stereo not shown) [CBK265404] | 100
COC(=O)C1(Cc2cc(-c3cccc(F)c3)no2)CCOCC1 [CBK285330] | 124.673
Cc1cnn(CC2CCCN2C(=O)CC2OCCc3ccsc32)c1 (stereo not shown) [CBK305370] | 122.794
NCCSC1CC(=O)N(Cc2cccs2)C1=O (stereo not shown) [CBK269047C] | 187.305
Cc1n[n+]2c(C(=O)Nc3ccc(S(=O)(=O)Nc4nccs4)cc3)c(C)[n-]n2c1[N+](=O)[O-] [CBK293983] | 82.8341
CC(C)(C)OC(=O)N1CCC(C(=O)NCc2ccccn2)CC1 [CBK305696] | 113.145

An excerpt from above in order of formula weight, smallest number first.
SMILES | % of control remaining [%]
c1ccc(Nc2nc(-c3cccs3)cn3ccnc23)cc1 [CBK066513] | 93.2613
CCN(Cc1ccco1)C(=O)Cn1c(=O)n(C)c2ncccc21 [CBK282390] | 111.748
CCC(=O)N1CCC[C@@H]1Cn1nc(-c2cccs2)ccc1=O [CBK282304] | 127.732
Cc1cnn(CC2CCCN2C(=O)CC2OCCc3ccsc32)c1 (stereo not shown) [CBK305370] | 122.794
C=C(C)Cn1c(SCC(C)C)nnc1-c1ccccc1OC(F)(F)F [CBK200080] | 98.1426
CCCn1c(SCC(=O)NC2CCN(CC)CC2)nc2cc(Cl)ccc21 [CBK305027] | 82.5074
COc1c(C(=O)Nc2ccc(CN3CCOCC3)cc2)cc2ccccc2c1Br [CBK268593] | 120.204

(more compounds)

SMILES | % of control remaining [%]
COc1cc(CN2CCC(Cc3ccccc3-c3ccccc3)(C(N)=O)CC2)cc(OC)c1 [CBK285912] | 162.746
Cc1ccc2c(c1)oc(=O)n2CCNC(=O)Cc1c[nH]c2ccccc12 [CBK284473] | 108.569
Oc1cc(CCc2ccc(F)cc2)nc2ccnn12 [CBK281876] | 118.619
CCc1nnc(NC(=O)COC(=O)CSc2nc(C)cc(C)n2)s1 [CBK018792] | 112.038
COc1cc(C(=O)Nc2nc3c(C)cccc3s2)cc(OC)c1OC [CBK287302] | 92.6087
COC(=O)c1cccn2cc(CN(CC#N)C3CC3)nc12 [CBK305821] | 172.139
COCc1cn(C2CC(O)C(CO)O2)c(=O)[nH]c1=O (stereo not shown) [CBK201230] | 132.087
Cn1cc(C2CCCCCN2Cc2cc(Cl)ccc2O)cn1 (stereo not shown) [CBK282941] | 128.906
COc1ccc(OC)c(C2C(C(=O)c3ccccc3)=C(O)C(=O)N2CCN2CCOCC2)c1 (stereo not shown) [CBK264748] | 113.832
COc1cccc(-c2cncc(C3CN(Cc4cccc5ncccc45)CCO3)n2)c1 (stereo not shown) [CBK285973] | 75.0258
CC(=O)Nc1ccc(S(=O)(=O)Nc2cccc(C(=O)O)c2)cc1 [CBK050407] | 100.179
O=C1c2cccc3cccc(c23)C(=O)N1CCN1CCN(CC(O)COc2ccccc2)CC1 (stereo not shown) [CBK266255] | 122.584
O=C(/C=C\c1ccccc1)CC1(O)C(=O)N(Cc2cccc3ccccc23)c2ccccc21 (stereo not shown) [CBK264761] | 116.615
O=C(c1ccc(-c2nccnc2NCCc2c[nH]c3ccccc23)cc1)N1CCOCC1 [CBK036891] | 159.592
N#Cc1ccc(C(=O)Nc2cncc(OC3CCNCC3)n2)cc1 [CBK036371T] | 128.378
O=C(CN1C(=O)S/C(=C\C=C\c2ccccc2)C1=O)Nc1cccc2c1C(=O)c1ccccc1C2=O [CBK263870] | 119.755
Cc1cnn(C2CCCN(C(=O)Cc3cccs3)C2)c1 (stereo not shown) [CBK304832] | 96.0849
Cc1ccc(NC(=O)c2cncnc2)c(C)n1 [CBK200380] | 118.178
CC(=O)Nc1ccc(OCC(O)Cn2nc(-c3ccco3)oc2=O)cc1 (stereo not shown) [CBK305615] | 151.005
O=C(NCc1ccccc1)c1ccc2[nH]c(=O)c(-c3ccccc3)c(O)c2c1 [CBK160318] | 66.1351
CC(C)[C@H](CO)Nc1cncc(-c2ccccc2CO)n1 [CBK065326] | 95.7416
c1ccc(CN2CCN(Cc3ccccc3)C2c2ccco2)cc1 [CBK260888] | 100
O=C(O)c1ccc(NS(=O)(=O)c2ccc(Br)cc2)cc1 [CBK034058] | 118.909
O=C(N1CCn2cnnc2C1)C1(c2ccccc2)CCCC1 [CBK283926] | 127.213
COc1ccc(C(=O)N2Cc3nc[nH]c3C[C@H]2c2nc(-c3ccc(OC)cc3)no2)cc1 [CBK288966] | 98.7941
N#Cc1ccc(C(=O)N2CCN3C(=O)[C@H](Cc4ccc(F)cc4)NC(=O)[C@H]3C2)cc1 [CBK289602] | 103.572
Cc1ccccc1-c1nnc(-c2ccc(C(=O)N=c3sccn3C)cc2)o1 [CBK298283] | 102.542

SMILES | % of control remaining [%]
CC(=O)N1C[C@H]2CCCN(S(=O)(=O)c3ccc(F)cc3)[C@H]2C1 [CBK285283] | 129.371
O=C(NC1CCN(Cc2c(F)cccc2Cl)CC1)c1cccs1 [CBK057035] | 132.056
CC(C)(C)c1ccc(/C=N/NC(=O)CCSc2ccc(Cl)cc2)cc1 [CBK263696] | 100
O=c1[nH]nc(SCCCOc2ccc(Cl)cc2)n1C1CC1 [CBK295597] | 80.2266
COc1ccc(CCCC(=O)Nc2ccc(N3CCNCC3)nc2)cc1OC [CBK028272T] | 100
CCCOCCCn1ccc2nc(OC)c(C#N)cc2c1=O [CBK307162] | 107.871
CSc1ccccc1NC(=O)CN(c1ccc(F)cc1)S(=O)(=O)c1ccc2c(c1)OCCO2 [CBK266836] | 191.427
COc1ccnc(NC(c2cnn(C)c2)[C@H]2C[C@@H](O)C2)n1 (stereo partly shown) [CBK306617] | 125.911
COCCc1nc(-c2csc(CN(C)C)n2)n(Cc2ccccc2C)n1 [CBK306735] | 116.476
NS(=O)(=O)c1ccc(NC(=O)CN2CCN(c3cccc(C(F)(F)F)c3)CC2)cc1 [CBK266180] | 203.024
[O-][S+](CC(O)COc1ccc(Cl)cc1)c1ccccn1 (stereo not shown) [CBK261750] | 100
Cc1ccc(C(=O)O)cc1NC(=O)C(C)Oc1cccc(Cl)c1 (stereo not shown) [CBK268331] | 119.39
COc1ccc(CNC(=O)c2sc3ncnc(N(C)C4CCCCC4)c3c2C)cc1 [CBK294431] | 180.142
CCC1(CC)OC(NCc2ccccc2)=NC1=O [CBK122636] | 124.266
O=C(Nc1ccncc1)c1ccc2nc[nH]c2c1 [CBK269034] | 120.53
O=C(Cc1ccc2c(c1)CCCC2)Nc1cccc(-c2nnn[nH]2)c1 [CBK297129] | 126.955
Cn1cc(C(=O)Nc2ccccc2N2CCNCC2)c2ccccc21 [CBK034141T] | 124.355
CN1CCN(C(=O)c2c(NS(=O)(=O)/C=C/c3ccccc3)sc3c2CCCC3)CC1 [CBK050417] | 100
COCC(=O)Nc1ccc(N2CCCC2=O)c(Cl)c1 [CBK256871] | 111.218
CSc1ccc2cc(CSc3nnc(-c4cccs4)n3CC(=O)O)c(Cl)nc2c1 [CBK295298] | 182.375
CC(=O)C1=C(C)N(CC2CCCO2)C(=O)C1(NC(=O)c1ccc(C(C)(C)C)cc1)C(F)(F)F (stereo not shown) [CBK268043] | 126.634
COc1nn(CC(=O)Nc2cccc(CCc3ccncc3)c2)c(=O)c2ccccc12 [CBK285560] | 105.623
Cc1cc2nc(CC(=O)NN)[nH]c2cc1C [CBK012180] | 122.125
COc1ccc(Br)c(C(=O)Nc2[nH]nc(O)c2Cc2c(Cl)cccc2Cl)c1 [CBK084554] | 99.0684
OC(COc1ccc2c(c1)OCO2)CN1CCN(C(c2ccccc2)c2ccccc2)CC1 (stereo not shown) [CBK074854C] | 128.958

Source: paper PMC12040169 (PLOS Biology, 2025)
